From PubChem BioAssay AID2685 (National Center for Advancing Translational Sciences (NCATS), 2010)
This is one part of the list. Shown are side measurements of this screen, not its main read-out; they come without a call. Most of these compounds were active or inconclusive in the main read-out, so they are no random draw. The note in brackets gives the kind of curve behind each potency; many fits are weak.

Test: qHTS Assay for Lipid Storage Modulators in Drosophila S3 Cells;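 for cell number change: cells counted by Cell Tracker Red CMTPX staining in the red channel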
Settings: BODIPY lipid droplet fluorescence, 18-24 h; for cell number change: measured here: cell count max response, cells fed with added oleic acid
Method in brief: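 Drosophila S3 cells loaded with oleic acid (400 uM, as added) and compounds at several concentrations; lipid droplets imaged by 488-nm laser-scanning cytometry, 500–530 nm intensity and object ratio to cell channel. Percent activity normalized to 20 uM Triacsin C.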

[1] = measured here: cell number channel AC50, cells fed with added oleic acid
[2] = measured here: lipid fluorescence (Fed channel) AC50, cells fed with added oleic acid

| SMILES | AC50 [1] | cell number change [%] | AC50 [2] |
| --- | --- | --- | --- |
| O=C(NCCCO)c1ccc2nc(-c3ccco3)c(-c3ccco3)nc2c1 | 0.326 µM [rising, full curve, poor fit] |  |  |
| CC(SCc1ccc(C(=O)O)o1)c1ccc(C(=O)O)o1 (stereo not given) |  | -11.6 | 29.1 µM [falling, single point] |
| COc1ccc(C(C)(C)C)cc1NC(=O)C1CC=CCC1C(=O)O (stereo not given) |  | 2.74 | 3.26 µM [falling, full curve, poor fit] |
| O=C(CCCO)NC1Cc2ccccc2C1 |  | -8.99 | 0.731 µM [falling, full curve, poor fit] |
| O=C(CN1CCCCCC1)Nc1ccc(Cl)cc1F | 0.103 µM [rising, full curve, poor fit] | 21.1 |  |
| COc1cccc(/C=N/NC(=O)c2[nH]c(C)c(C(=O)N/N=C/c3cccc(OC)c3)c2C)c1 | 29.1 µM [rising, single point] | 91 | 20.6 µM [rising, single point] |
| CCN(CC(=O)NCc1ccc(F)cc1)CC(=O)Nc1ccc(S(=O)(=O)N2CCCC2)cc1 |  |  | 0.731 µM [rising, single point] |
| O=C(NCCSCc1c(F)cccc1Cl)c1ccc(CN2CCOCC2)cc1 |  | 7.74 | 5.17 µM [rising, single point] |
| COP(=O)(c1ccc(N(C)C)cc1)C(O)c1ccccc1 (stereo not given) |  | 15.3 | 0.58 µM [falling, single point] |
| CCC1CCCCN1CC(O)COCc1cccc(OC)c1 (stereo not given) |  | 15.4 |  |
| CCC(C)(C)n1nnnc1C(c1cc2cc(OC)ccc2[nH]c1=O)N1CCc2ccccc21 (stereo not given) | 4.11 µM [rising, single point] |  |  |
| CN(C)/N=C/c1ccc(P(c2ccc(/C=N/N(C)C)o2)c2ccc(/C=N/N(C)C)o2)o1 | 0.651 µM [rising, full curve, poor fit] | 41.4 |  |
| CCC/C(=N\NC(=O)CCC(=O)NCc1ccccc1)c1ccccc1 | 0.00517 µM [falling, full curve, poor fit] | -20.9 |  |
| C=CCN1C(=O)c2ccc(C(=O)N(CCC)CC(=O)Nc3ccccc3C)cc2C1=O |  | 22 |  |
| COc1ccc(CCNC(=O)c2n[nH]c3ccccc23)cc1 | 2.59 µM [rising, full curve] | 57.3 | 2.91 µM [rising, full curve] |
| COc1ccc(S(=O)(=O)Nc2ccc(N3CCOCC3)cc2)cc1Br | 3.26 µM [rising, partial curve] | 43.2 | 16.4 µM [rising, partial curve] |
| Cc1cccc(Nc2nnc(SCC3CCCCO3)s2)c1 (stereo not given) |  | -14.3 | 0.00461 µM [falling, full curve, poor fit] |
| COc1ccccc1CNC(=O)COC(=O)c1cccc(S(=O)(=O)N2CCCC2)c1 |  | 24.9 |  |
| Cc1cccnc1NC(=O)c1ccc(Cl)c(S(=O)(=O)N2CCCC2)c1 |  | 18.4 | 23.1 µM [rising, single point] |
| CC(CNC(=O)CCc1nnc2ccc(N3CCC4(CC3)OCCO4)nn12)c1ccccc1 (stereo not given) | 2.31 µM [falling, partial curve] | -31.7 |  |
| Cn1nnnc1SCC(=O)Nc1ccc(N2CCOCC2)cc1 |  | -27.5 | 5.8 µM [falling, full curve, poor fit] |

Part of the list above, showing only cell number change [%]:
SMILES	cell number change [%]
O=C(CN1CCCCCC1)Nc1ccc(Cl)cc1F	21.1
Cn1nnnc1SCC(=O)Nc1ccc(N2CCOCC2)cc1	-27.5

(listing goes on)

| SMILES | AC50 [1] | cell number change [%] | AC50 [2] |
| --- | --- | --- | --- |
| CCOCCn1c(SCc2c(F)cccc2Cl)nc2c1c(=O)[nH]c(=O)n2C |  | 10.8 | 4.11 µM [rising, full curve] |
| O=C(CCN1C(=O)c2ccccc2S1(=O)=O)N1CCN(c2ccccc2)CC1 |  | -27.2 | 29.1 µM [falling, single point] |
| CCN(CC(=O)Nc1c(F)cccc1F)C(=O)/C=C/c1ccc(C)o1 |  | 22.2 | 6.51 µM [rising, partial curve] |
| O=S(=O)(c1ccc(Br)cc1)N1CCC2(CC1)OCCO2 |  | 12.9 | 7.31 µM [rising, partial curve, poor fit] |
| OC(CNC1CCCC1)COc1ccc(-c2ccccc2)cc1 (stereo not given) |  | 84.3 |  |
| CCN=c1scc(C)n1/N=C/c1cc(Br)c(O)c(Br)c1 | 0.0517 µM [falling, full curve, poor fit] | 24.3 | 0.116 µM [falling, full curve, poor fit] |
| CCC1c2ccc(C)n2CCN1C(=O)Nc1ccccc1C(=O)OC (stereo not given) |  |  | 1.16 µM [falling, full curve, poor fit] |
| COC(CNC(=O)c1c[nH]c2ccc(S(=O)(=O)N(C)c3ccc(F)cc3)cc2c1=O)OC |  | -6.34 |  |
| CCN1CCN(C(=S)NCC2CCCO2)CC1 (stereo not given) | 20.6 µM [falling, single point] | -31.9 | 18.4 µM [falling, single point] |
| C=CCOC(=O)C1=C(C)OC(N)=C(C#N)C1c1ccco1 (stereo not given) |  | 29.7 |  |
| Cc1cc(Oc2ccccc2)nc(SCC(=O)Nc2ccc(Cl)cc2Cl)n1 | 23.1 µM [rising, partial curve] | 86.4 | 2.91 µM [rising, partial curve] |
| O=C(CCc1nnc(-c2ccccc2)o1)NCc1c(F)cccc1F | 0.92 µM [falling, full curve] | -34.3 | 1.46 µM [falling, partial curve] |
| COc1cccc(C(=O)Nc2ccc3c(C)cc(=O)oc3c2)c1 | 0.0058 µM [rising, full curve, poor fit] | -8.42 | 29.1 µM [falling, single point] |
| O=C1NC(=O)C(c2ccccc2)(c2ccc(O)cc2)N1 (stereo not given) |  | -18.3 |  |
| O=C(O)C1C2C=CC(C2)C1C(=O)OCC1CCCO1 (stereo not given) | 29.1 µM [rising, single point] | 37.4 |  |
| COc1cccc(NC(=O)Nc2ccc3nc(C)c(C)nc3c2)c1 |  | 24.9 |  |
| O=C(C1CCCN(CCCc2ccccc2)C1)N1CCCCCC1 (stereo not given) | 0.517 µM [rising, partial curve, poor fit] |  |  |
| CN(CC(=O)Nc1ccc(OC(F)(F)F)cc1)C(=O)Cc1c(Cl)cccc1Cl |  | 14.9 | 6.51 µM [falling, single point] |
| C=C(C)Cn1c(NCCC)nc2c1c(=O)n(C)c(=O)n2C |  | -5.39 |  |
| Cc1ccnc(NS(=O)(=O)c2ccc(NC(=O)CCS(=O)(=O)c3ccccc3)cc2)n1 | 9.2 µM [rising, partial curve] | 48.8 |  |
| O=C(NC1CCN(C(=O)NCc2ccccc2)CC1)c1cccc(F)c1 |  |  | 25.9 µM [falling, partial curve] |

Two of the compounds above, with tabs:
SMILES	AC50 [1]	cell number change [%]	AC50 [2]
CCOCCn1c(SCc2c(F)cccc2Cl)nc2c1c(=O)[nH]c(=O)n2C		10.8	4.11 µM [rising, full curve]
O=C(CCN1C(=O)c2ccccc2S1(=O)=O)N1CCN(c2ccccc2)CC1		-27.2	29.1 µM [falling, single point]

(continued)

| SMILES | AC50 [1] | cell number change [%] | AC50 [2] |
| --- | --- | --- | --- |
| Cc1ccnc(NS(=O)(=O)c2ccc(NC(=O)CC(C)c3ccccc3)cc2)n1 (stereo not given) |  | 4.76 | 29.1 µM [rising, single point] |
| CCOC(=O)CC1CCCCN1C(=O)c1ccc2nc(CCOC)oc2c1 (stereo not given) |  | 18.5 |  |
| COc1ccc(C2c3[nH]c4ccccc4c3CCN2CCCn2cccn2)c(C)c1C (stereo not given) |  | 23.7 | 0.731 µM [rising, full curve, poor fit] |
| CCn1c(C)nc2cc(C(=O)N/N=C/c3cccc(OC)c3O)ccc21 | 29.1 µM [falling, single point] | -51.6 | 29.1 µM [falling, single point] |
| CC(NCC(=O)Nc1cc(S(=O)(=O)N2CCOCC2)ccc1N1CCOCC1)c1ccco1 (stereo not given) |  | 1.13 | 0.461 µM [falling, single point] |
| c1ccc2nc3c(nc2c1)sc1nc2ccccc2n13 |  | 5.6 | 0.58 µM [rising, single point] |
| Cc1cc(NC(=O)c2cccc(C)c2[N+](=O)[O-])no1 |  | 14.7 | 29.1 µM [rising, single point] |
| Oc1ccc(Br)cc1-c1cc(-c2ccc(Cl)cc2)n[nH]1 | 20.6 µM [falling, partial curve] | -91.5 | 29.1 µM [falling, partial curve] |
| CCC(=O)NCCc1nc2cc(NC(=O)Nc3ccccc3)ccc2n1C |  |  | 0.58 µM [rising, single point] |
| Cc1ccc(SCCNC(=S)Nc2cc(C)ccc2C)cc1 | 29.1 µM [rising, single point] | 58.1 |  |
| O=C(Nc1c(F)cc(F)cc1Br)c1ccco1 | 16.4 µM [falling, partial curve] | -74.4 | 16.4 µM [falling, partial curve] |
| Cc1cccc(NS(=O)(=O)c2ccc(C3CCCCC3)cc2)n1 | 0.651 µM [falling, full curve, poor fit] | -24 | 2.59 µM [falling, partial curve] |
| O=S(=O)(Nc1ccc(S(=O)(=O)N2CCOCC2)cc1)c1ccc(Br)cc1 | 14.6 µM [falling, partial curve, poor fit] | -32.4 | 0.206 µM [rising, single point] |
| CCOC(=O)Cc1cnc(N)s1 | 6.51 µM [rising, single point] |  |  |
| O=C1NC(=S)N/C1=C\c1cccc([N+](=O)[O-])c1 | 3.26 µM [falling, full curve] | -63 | 5.8 µM [falling, single point] |
| Cc1ccc(NC(=O)C2CC(=O)N(Cc3ccco3)C2)cc1 (stereo not given) |  | 0.387 |  |
| COc1cc(S(=O)(=O)N(Cc2ccc(C)cc2)C2CCCCC2)ccc1-n1cnnn1 |  | -29.2 |  |
| COC(=O)c1cc(NC(=O)c2ccoc2C)cc(C(=O)OC)c1 |  | -6.54 | 0.082 µM [rising, full curve, poor fit] |
| O=C(CSc1ccccn1)N1CCN(c2cccc(Cl)c2)CC1 |  |  | 4.11 µM [rising, single point] |
